Results from patent US12202805B2, “Process for preparing (5S)-{[2-(4-carboxyphenyl)ethyl] |2-(2-{|3-chloro-4'-(trifluoromethyl)biphenyl-4-yl]methoxy}phenyl)ethyl]aminol-5,6,7,8-tetrahydroquinoline-2-carboxylic acid and its crystalline forms for use as pharmaceutically active compound” (Bayer Aktiengesellschaft, priority 2021, dated 2025).
“And” between values parts separate entries of the source, which are not always exact repeats. Identical values can stand only once. Further values from the same series stand in other lists.

System: thromboxane A2 challenged PAH-minipig
Assay: Haemodynamics in the anesthetized thromboxane challenged minipig, intratracheal dry powder (PAP, BP)
Format: in vivo, Göttingen Minipigs
Settings: 375 μg/kg i.t.
Description: Healthy Göttingen Minipigs® Ellegaard (Ellegaard, Denmark) of both sexes and having a weight of 2-6 kg were used. The animals were sedated by i.m. administration of about 25 mg/kg ketamine and about 10 mg/kg azaperone. Anaesthesia was initiated by i.v. administration of about 2 mg/kg ketamine and about 0.3 mg/kg midazolam. Maintenance of anaesthesia was by i.v. administration of about 7.5-30 mg/kg/h ketamine and about 1-4 mg/kg/h midazolam (rate of infusion 1-4 ml/kg/h) and about 150 μg/kg/h pancuronium bromide (for example Pancuronium-Actavis). After intubation, the animals were ventilated by the ventilator at a constant respiratory volume (10-12 ml/kg, 35 breaths/min; Avea®, Viasys Healthcare, USA, or Engström Carestation, GE Healthcare, Freiburg, Germany) such that an end-tidal CO2 concentration of about 5% was achieved. Ventilation was performed with room air, enriched with about 40% oxygen (normoxia). For the measurement of the haemodynamic parameters such as pulmonary arterial pressure (PAP), blood pressure (BP) and heart rate (HR), catheters were inserted into the carotid artery to measure the blood pressure, and a Swan-Ganz® catheter was introduced in a flow-directed manner via the jugular vein into the pulmonary artery. The haemodynamic signals were recorded and evaluated by means of pressure transducers (Combitransducer, B. Braun, Melsungen, Germany)/amplifiers and Ponemah® as data acquisition software.
As reference pure Lactose vehicle was applied in the beginning of each experiment.

| Structure (SMILES) | BP, % changes vs. prevalues (time 50 min) | PAP, % changes vs. prevalues (time 50 min) | BP (mean) (time −10 min) | PAP(mean) (time −10 min) |
| --- | --- | --- | --- | --- |
| O=C(O)c1ccc(CCN(CCc2ccccc2OCc2ccc(-c3ccc(C(F)(F)F)cc3)cc2Cl)[C@H]2CCCc3nc(C(=O)O)ccc32)cc1 [example 2, (5S)—{[2-(4-Carboxyphenyl)ethyl][2-(2-{[3-chloro-4′-(trifluoromethyl)biphenyl-4-yl]methoxy}phenyl)-ethyl]amino}-5,6,7,8-tetrahydroquinoline-2-carboxylic acid as Monohydrate II] | 100.0% | – | – | – |
| O.O=C(O)c1ccc(CCN(CCc2ccccc2OCc2ccc(-c3ccc(C(F)(F)F)cc3)cc2Cl)[C@H]2CCCc3nc(C(=O)O)ccc32)cc1.O=C(O)c1ccc(CCN(CCc2ccccc2OCc2ccc(-c3ccc(C(F)(F)F)cc3)cc2Cl)[C@H]2CCCc3nc(C(=O)O)ccc32)cc1 [example 6a, (5S)—{[2-(4-Carboxyphenyl)ethyl][2-(2-{[3-chloro-4′-(trifluoromethyl)biphenyl-4-yl]methoxy}phenyl)-ethyl]amino}-5,6,7,8-tetrahydroquinoline-2-carboxylic acid semihydrate] | 99.6% and 98.4% and 100.6% | 99.3% and 98.7% and 98.9% | 99 mmHg and 85 mmHg and 86 mmHg | 38.7 mmHg and 40.6 mmHg |
